Data published in PubChem BioAssay AID248 (DTP/NCI, 2004).
The list shows only some results of the screen, not a fair sample: it gathers tests that were run many times, whatever their T/C, doses with no T/C, and many T/C values between a quarter and a half above the control. Further doses and runs are listed elsewhere. T/C is the treated group as % of the vehicle group. Some entries give survivors of the animals treated and no T/C: the source files T/C as zero there, which appears to mark a toxic dose or a test without result, not a measured value. Some doses without a T/C left all or most animals alive at the check, yet need not have been tolerated: the source hardly ever lists a survival T/C far under the control, and the zero likely stands for such cases as well. Survivors were counted at the toxicity check, usually on the fifth day, unless a day is given; later deaths do not show. Schedules are NCI's codes, taken here to give the interval after Q, in days (D) or hours (H), and the number of doses after X. Some schedule codes hold Z or #, which are not explained here. Some doses were run more than once; their values stand side by side, smallest first. For survival time, the PubChem record calls one and a half times the control and up active, and a quarter to a half above the control has no call in these data; cut-offs in other NCI protocols can differ. Some T/C values are followed by the survivors on the day toxicity was checked, most often the fifth; without a count, all were alive then.

Test system: L1210 leukemia ip in BDF1 mice, survival T/C
Test: NCI In Vivo Anticancer Drug Screen. Data for tumor model L1210 Leukemia (intraperitoneal) in B6D2F1 (BDF1) mice
Details: T/C endpoint: mean survival time, higher T/C = longer survival
[1] = dose: 100.0 mg/kg/injection, schedule: Q01DX009 (ip), vehicle: saline with Tween-80
[2] = dose: 400.0 mg/kg/injection, schedule: Q04DX003 (ip), vehicle: saline
[3] = dose: 400.0 mg/kg/injection, schedule: Q01DX001 (ip), vehicle: saline
[4] = dose: 400.0 mg/kg/injection, schedule: Q04DX003 (ip), vehicle: Klucel (hydroxypropylcellulose) (HPC)
[5] = dose: 300.0 mg/kg/injection, schedule: Q01DX001 (ip), vehicle: saline
[6] = dose: 200.0 mg/kg/injection, schedule: Q01DX009 (ip), vehicle: saline with Tween-80
[7] = dose: 200.0 mg/kg/injection, schedule: Q01DX009 (ip), vehicle: Klucel (hydroxypropylcellulose) (HPC)
[8] = dose: 100.0 mg/kg/injection, schedule: Q04DX003 (ip), vehicle: gum acacia

Q: With C[n+]1ccc(NC(=O)c2ccc(NC(=O)c3ccc(C(=O)Nc4ccc(C(=O)Nc5cc[n+](C)cc5)cc4)c(N)c3)cc2)cc1 as the molecule, how does the survivor count (dose: 60.0 mg/kg/injection, schedule: Q01DX Z (ip), vehicle: water) read?
A: 3 of 6

Q: And the survivor count (dose: 100.0 mg/kg/injection, schedule: Q01DX Z (ip), vehicle: water)?
A: 6 of 6

Q: And the survivor count (dose: 125.0 mg/kg/injection, schedule: Q01DX Z (ip), vehicle: carboxymethylcellulose (CMC))?
A: 0 of 6

Q: And the survivor count (dose: 250.0 mg/kg/injection, schedule: Q01DX Z (ip), vehicle: carboxymethylcellulose (CMC))?
A: 0 of 6

Q: What about the survivor count (dose: 500.0 mg/kg/injection, schedule: Q01DX Z (ip), vehicle: carboxymethylcellulose (CMC)) of the same molecule?
A: 0 of 6

Q: What does the source list for O=C(NC(Cc1ccccc1)C(=O)CCl)OCc1ccccc1 (centres undefined)?
A: survivor count [1]: 3 of 6; survivor count (dose: 200.0 mg/kg/injection, schedule: Q04DX003 (ip), vehicle: saline sonified): 6 of 6; survivor count (dose: 400.0 mg/kg/injection, schedule: Q04DX003 (ip), vehicle: saline sonified): 2 of 6

Q: Which T/C (dose: 400.0 mg/kg/injection, schedule: Q04DX002 (ip), vehicle: saline) does the source give for CC1CC1C(N)=O (centres undefined) here?
A: 127 % of control

Q: With CC(=O)NC1C(NC(=O)C(CC(=O)O)NC(=O)OCc2ccccc2)OC(COC(C)=O)C(OC(C)=O)C1OC(C)=O (centres undefined) as the molecule, how does the survivor count (dose: 200.0 mg/kg/injection, schedule: Q04DX002 (ip), vehicle: Klucel (hydroxypropylcellulose) (HPC)) read?
A: 3 of 3

Q: Which survivor count [2] does the source give for Cc1c(C(=O)O)c(C(=O)O)c(C)n1-c1ccccc1C(=O)O (tested in a mixture with another compound) here?
A: 6 of 6

Q: Which survivor count (dose: 50.0 mg/kg/injection, schedule: Q01DX009 (ip), vehicle: Klucel (hydroxypropylcellulose) (HPC)) does the source give for CC1(C)N=C(N)N=C(N)N1c1ccc(CCc2ccccc2)cc1 here?
A: 3 of 6

Q: What about the survivor count (dose: 100.0 mg/kg/injection, schedule: Q04DX003 (ip), vehicle: Klucel (hydroxypropylcellulose) (HPC)) of the same molecule?
A: 5 of 6

Q: How did the survivor count (dose: 200.0 mg/kg/injection, schedule: Q01DX009 (ip), vehicle: DMSO) turn out when O=[N+]([O-])c1ccccc1N=P(c1ccccc1)(c1ccccc1)c1ccccc1 was run?
A: 2 of 6

Q: What about the survivor count (dose: 400.0 mg/kg/injection, schedule: Q04DX003 (ip), vehicle: DMSO) of the same molecule?
A: 1 of 6

Q: C=C1C(=O)O[C@H]2C=C(C)[C@H]3[C@@H](OC(C)=O)C[C@@](C)(O)[C@@H]3C[C@H]12 was tested. Which survivor count (dose: 100.0 mg/kg/injection, schedule: Q01DX Z (ip), vehicle: carboxymethylcellulose (CMC)) did it give?
A: 0 of 4

Q: And the survivor count (dose: 200.0 mg/kg/injection, schedule: Q01DX Z (ip), vehicle: carboxymethylcellulose (CMC))?
A: 0 of 4

Q: CNC(=S)N/N=C/c1cnccn1 was tested. Which survivor count [3] did it give?
A: 1 of 4

Q: Which survivor count (dose: 128.0 mg/kg/injection, schedule: Q01DX Z (ip), vehicle: saline) does the source give for NCCCCCCNC(=O)CCCCC(=O)NCCCCCCN here?
A: 5 of 6

Q: What about the survivor count (dose: 256.0 mg/kg/injection, schedule: Q01DX Z (ip), vehicle: saline) of the same molecule?
A: 0 of 6

Q: Nc1cc([N+](=O)[O-])cc([N+](=O)[O-])c1 was tested. Which survivor count (dose: 400.0 mg/kg/injection, schedule: Q01DX001 (ip), vehicle: carboxymethylcellulose (CMC)) did it give?
A: 2 of 4

Q: With Nc1cc(S(=O)(=O)O)cc2cc(S(=O)(=O)O)cc(O)c12 as the molecule, how does the T/C (dose: 200.0 mg/kg/injection, schedule: Q04DX002 (ip), vehicle: saline) read?
A: 133 % of control

Q: What does the source list for O=C1NC(CCl)(CCl)CO1?
A: survivor count (dose: 4.0 mg/kg/injection, schedule: Q01DX001 (ip), vehicle: saline): 3 of 6; survivor count (dose: 8.0 mg/kg/injection, schedule: Q01DX001 (ip), vehicle: saline): 0 of 6

Q: For Fc1ccc(P(c2ccc(F)cc2)c2ccc(F)cc2)cc1, which survivor count (dose: 100.0 mg/kg/injection, schedule: Q01DX009 (ip), vehicle: Klucel (hydroxypropylcellulose) (HPC)) is on record?
A: 4 of 6

Q: And the survivor count (dose: 200.0 mg/kg/injection, schedule: Q04DX003 (ip), vehicle: Klucel (hydroxypropylcellulose) (HPC))?
A: 2 of 6

Q: What about the survivor count [4] of the same molecule?
A: 0 of 6

Q: For Nc1ccc2nc3ccc(N)cc3[n+](-c3ccccc3)c2c1, which T/C (dose: 40.0 mg/kg/injection, schedule: Q01DX001 (ip), vehicle: other) is on record?
A: 127 % of control [3 of 4 alive]

Q: What about the survivor count (dose: 60.0 mg/kg/injection, schedule: Q01DX001 (ip), vehicle: other) of the same molecule?
A: 3 of 6

Q: What about the survivor count (dose: 80.0 mg/kg/injection, schedule: Q01DX001 (ip), vehicle: other) of the same molecule?
A: 0 of 4

Q: What about the survivor count (dose: 100.0 mg/kg/injection, schedule: Q01DX001 (ip), vehicle: other) of the same molecule?
A: 0 of 4

Q: And the survivor count (dose: 200.0 mg/kg/injection, schedule: Q01DX001 (ip), vehicle: other)?
A: 0 of 4

Q: What about the survivor count (dose: 400.0 mg/kg/injection, schedule: Q01DX001 (ip), vehicle: other) of the same molecule?
A: 0 of 4

Q: For CC(=O)OC1CC(C)(C)CC(OC(C)=O)C1(C)C (centres undefined), which survivor count [5] is on record?
A: 0 of 6

Q: Which results are given for Cc1c(O)ccc(C(=O)CCl)c1O?
A: survivor count (dose: 12.0 mg/kg/injection, schedule: Q01DX009 (ip), vehicle: saline with Tween-80): 3 of 6; survivor count (dose: 50.0 mg/kg/injection, schedule: Q01DX009 (ip), vehicle: saline with Tween-80): 2 of 6 and 5 of 6; survivor count [1]: 3 of 6; survivor count [6]: 3 of 6; survivor count (dose: 400.0 mg/kg/injection, schedule: Q01DX009 (ip), vehicle: saline with Tween-80): 0 of 6; survivor count [4]: 1 of 6

Q: Which survivor count (dose: 50.0 mg/kg/injection, schedule: Q01DX009 (ip), vehicle: saline) does the source give for CC1(C)C(=O)Nc2ccccc2N1C(=O)CN1CC2CCC(CC2)C1 here?
A: 6 of 6

Q: How did the survivor count [7] turn out when CN(C)C=O.CN(C)C=O.[Cl][Sn]([Cl])([Cl])[Cl] was run?
A: 1 of 6

Q: What about the survivor count [4] of the same molecule?
A: 0 of 6

Q: Nc1ncnc2c1ncn2C1OC(COC(=O)C2C3CC4CC(C3)CC2C4)C(O)C1O (centres undefined) was tested. Which survivor count (dose: 200.0 mg/kg/injection, schedule: Q01DX001 (ip), vehicle: saline) did it give?
A: 2 of 4

Q: And the survivor count [3]?
A: 0 of 4

Q: With OC1(CCCc2ccccc2)CCNCC1 as the molecule, how does the survivor count [5] read?
A: 1 of 6

Q: With NC(=S)N/N=C(\c1ccccc1)c1ccccn1 as the molecule, how does the survivor count (dose: 100.0 mg/kg/injection, schedule: Q01DX001 (ip), vehicle: gum acacia) read?
A: 2 of 6

Q: What about the survivor count [8] of the same molecule?
A: 3 of 6

Q: And the survivor count (dose: 200.0 mg/kg/injection, schedule: Q01DX001 (ip), vehicle: gum acacia)?
A: 0 of 6

Q: What about the survivor count (dose: 400.0 mg/kg/injection, schedule: Q01DX001 (ip), vehicle: gum acacia) of the same molecule?
A: 0 of 6

Q: Which T/C (dose: 50.0 mg/kg/injection, schedule: Q04DX003 (ip), vehicle: saline) does the source give for C[n+]1ccc(Nc2ccc(NC(=O)c3ccc(Nc4cc[n+](C)c5ccc([N+](=O)[O-])cc45)cc3)cc2)cc1 here?
A: 144 % of control

Q: What about the T/C (dose: 200.0 mg/kg/injection, schedule: Q04DX003 (ip), vehicle: saline) of the same molecule?
A: 147 % of control

Q: With CC1=Cc2ccc(C)cc2C(=O)C1=O as the molecule, how does the survivor count (dose: 12.5 mg/kg/injection, schedule: Q04DX003 (ip), vehicle: saline with Tween-80) read?
A: 3 of 6

Q: And the survivor count (dose: 25.0 mg/kg/injection, schedule: Q04DX003 (ip), vehicle: saline with Tween-80)?
A: 0 of 6

Q: Which survivor count [7] does the source give for O=C(NC(=S)Nc1ccc(Cl)cc1)c1ccccc1 here?
A: 6 of 6

Q: What about the survivor count (dose: 400.0 mg/kg/injection, schedule: Q01DX009 (ip), vehicle: Klucel (hydroxypropylcellulose) (HPC)) of the same molecule?
A: 0 of 6

Q: What does the source list for N#CCC(=O)c1ccccc1?
A: survivor count (dose: 75.0 mg/kg/injection, schedule: Q04DX003 (ip), vehicle: gum acacia): 2 of 6; survivor count [8]: 1 of 6; survivor count (dose: 200.0 mg/kg/injection, schedule: Q04DX003 (ip), vehicle: gum acacia): 0 of 6; survivor count (dose: 400.0 mg/kg/injection, schedule: Q04DX003 (ip), vehicle: gum acacia): 0 of 6

Q: COc1ccc2c(c1)CCC1C2=CC(=O)/C1=C\[O-].COc1ccc2c(c1)CCC1C2=CC(=O)/C1=C\[O-].[Cu+2] (centres undefined) was tested. Which survivor count [6] did it give?
A: 0 of 6

Q: And the survivor count [2]?
A: 5 of 6

Q: What does the source list for CCOC(=O)C(Br)C(=O)OCC?
A: survivor count (dose: 37.5 mg/kg/injection, schedule: Q01DX009 (ip), vehicle: saline with Tween-80): 1 of 6; survivor count (dose: 75.0 mg/kg/injection, schedule: Q01DX009 (ip), vehicle: saline with Tween-80): 0 of 6
